According to doi:10.1101/2021.06.28.447216:
Results are given in words; binding and its absence hold for the method and conditions named. Binding seen in cells or lysates may run through a third protein. A yes stands for co-enrichment or nearness to the bait. Other partners may have been found.

Sequences of proteins named here, by UniProt entry; tags and fusion partners are left off.
UniProt P83916: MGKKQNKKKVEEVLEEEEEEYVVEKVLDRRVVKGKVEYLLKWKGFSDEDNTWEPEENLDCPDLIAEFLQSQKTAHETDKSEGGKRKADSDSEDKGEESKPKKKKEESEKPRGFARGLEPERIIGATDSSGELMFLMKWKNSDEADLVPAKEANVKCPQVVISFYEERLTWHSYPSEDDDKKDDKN
UniProt Q13185: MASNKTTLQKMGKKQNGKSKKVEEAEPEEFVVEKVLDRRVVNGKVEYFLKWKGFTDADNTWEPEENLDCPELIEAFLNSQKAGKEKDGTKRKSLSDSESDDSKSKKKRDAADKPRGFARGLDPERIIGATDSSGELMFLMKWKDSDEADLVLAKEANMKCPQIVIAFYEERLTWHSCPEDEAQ
UniProt P45973: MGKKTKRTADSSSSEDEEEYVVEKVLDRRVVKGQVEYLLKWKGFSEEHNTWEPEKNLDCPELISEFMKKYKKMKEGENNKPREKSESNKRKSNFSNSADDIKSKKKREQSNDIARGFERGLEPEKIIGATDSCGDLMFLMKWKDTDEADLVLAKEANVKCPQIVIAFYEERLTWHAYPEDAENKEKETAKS
UniProt Q9H9B1: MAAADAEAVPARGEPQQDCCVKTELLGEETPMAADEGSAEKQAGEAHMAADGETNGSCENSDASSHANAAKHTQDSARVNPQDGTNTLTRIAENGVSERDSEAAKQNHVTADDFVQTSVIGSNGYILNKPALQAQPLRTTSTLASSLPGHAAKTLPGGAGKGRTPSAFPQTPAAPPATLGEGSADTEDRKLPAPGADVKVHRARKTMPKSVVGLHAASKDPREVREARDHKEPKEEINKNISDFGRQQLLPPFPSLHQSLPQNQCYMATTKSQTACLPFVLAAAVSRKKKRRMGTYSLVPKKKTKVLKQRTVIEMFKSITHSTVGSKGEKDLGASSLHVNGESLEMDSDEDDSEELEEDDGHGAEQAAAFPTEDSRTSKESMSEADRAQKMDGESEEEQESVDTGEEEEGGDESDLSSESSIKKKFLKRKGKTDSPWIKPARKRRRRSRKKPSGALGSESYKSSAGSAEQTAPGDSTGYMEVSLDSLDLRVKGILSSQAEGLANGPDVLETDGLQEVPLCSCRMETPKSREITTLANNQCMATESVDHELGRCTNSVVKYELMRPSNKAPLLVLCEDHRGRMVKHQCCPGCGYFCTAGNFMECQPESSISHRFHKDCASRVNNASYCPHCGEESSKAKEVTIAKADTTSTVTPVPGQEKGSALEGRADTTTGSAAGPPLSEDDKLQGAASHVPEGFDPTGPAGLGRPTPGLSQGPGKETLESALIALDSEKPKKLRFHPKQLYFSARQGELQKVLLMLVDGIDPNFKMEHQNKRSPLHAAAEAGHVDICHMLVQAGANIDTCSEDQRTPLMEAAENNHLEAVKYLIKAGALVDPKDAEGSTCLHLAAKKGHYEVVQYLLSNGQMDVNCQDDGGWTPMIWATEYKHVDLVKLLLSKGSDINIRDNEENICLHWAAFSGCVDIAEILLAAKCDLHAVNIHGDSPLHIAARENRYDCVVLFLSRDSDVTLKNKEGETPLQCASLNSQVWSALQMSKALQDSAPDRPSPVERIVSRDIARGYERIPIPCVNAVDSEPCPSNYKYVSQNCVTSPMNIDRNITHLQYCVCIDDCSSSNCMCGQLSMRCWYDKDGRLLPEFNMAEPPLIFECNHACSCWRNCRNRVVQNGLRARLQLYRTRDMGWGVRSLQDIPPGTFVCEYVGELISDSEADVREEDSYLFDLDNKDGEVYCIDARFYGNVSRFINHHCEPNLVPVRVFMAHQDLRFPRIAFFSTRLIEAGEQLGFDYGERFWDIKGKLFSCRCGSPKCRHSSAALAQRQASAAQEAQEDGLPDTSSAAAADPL
UniProt O75367: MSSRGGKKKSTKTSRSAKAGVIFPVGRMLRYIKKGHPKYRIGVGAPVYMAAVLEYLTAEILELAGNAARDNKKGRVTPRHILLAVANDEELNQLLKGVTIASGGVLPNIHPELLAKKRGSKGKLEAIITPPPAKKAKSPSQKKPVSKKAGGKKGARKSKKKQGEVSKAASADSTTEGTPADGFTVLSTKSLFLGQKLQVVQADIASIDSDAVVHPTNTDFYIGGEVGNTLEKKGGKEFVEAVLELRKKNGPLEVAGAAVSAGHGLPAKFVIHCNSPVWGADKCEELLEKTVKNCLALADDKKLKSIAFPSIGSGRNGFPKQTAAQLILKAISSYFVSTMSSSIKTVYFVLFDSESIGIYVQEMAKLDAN
UniProt O95785: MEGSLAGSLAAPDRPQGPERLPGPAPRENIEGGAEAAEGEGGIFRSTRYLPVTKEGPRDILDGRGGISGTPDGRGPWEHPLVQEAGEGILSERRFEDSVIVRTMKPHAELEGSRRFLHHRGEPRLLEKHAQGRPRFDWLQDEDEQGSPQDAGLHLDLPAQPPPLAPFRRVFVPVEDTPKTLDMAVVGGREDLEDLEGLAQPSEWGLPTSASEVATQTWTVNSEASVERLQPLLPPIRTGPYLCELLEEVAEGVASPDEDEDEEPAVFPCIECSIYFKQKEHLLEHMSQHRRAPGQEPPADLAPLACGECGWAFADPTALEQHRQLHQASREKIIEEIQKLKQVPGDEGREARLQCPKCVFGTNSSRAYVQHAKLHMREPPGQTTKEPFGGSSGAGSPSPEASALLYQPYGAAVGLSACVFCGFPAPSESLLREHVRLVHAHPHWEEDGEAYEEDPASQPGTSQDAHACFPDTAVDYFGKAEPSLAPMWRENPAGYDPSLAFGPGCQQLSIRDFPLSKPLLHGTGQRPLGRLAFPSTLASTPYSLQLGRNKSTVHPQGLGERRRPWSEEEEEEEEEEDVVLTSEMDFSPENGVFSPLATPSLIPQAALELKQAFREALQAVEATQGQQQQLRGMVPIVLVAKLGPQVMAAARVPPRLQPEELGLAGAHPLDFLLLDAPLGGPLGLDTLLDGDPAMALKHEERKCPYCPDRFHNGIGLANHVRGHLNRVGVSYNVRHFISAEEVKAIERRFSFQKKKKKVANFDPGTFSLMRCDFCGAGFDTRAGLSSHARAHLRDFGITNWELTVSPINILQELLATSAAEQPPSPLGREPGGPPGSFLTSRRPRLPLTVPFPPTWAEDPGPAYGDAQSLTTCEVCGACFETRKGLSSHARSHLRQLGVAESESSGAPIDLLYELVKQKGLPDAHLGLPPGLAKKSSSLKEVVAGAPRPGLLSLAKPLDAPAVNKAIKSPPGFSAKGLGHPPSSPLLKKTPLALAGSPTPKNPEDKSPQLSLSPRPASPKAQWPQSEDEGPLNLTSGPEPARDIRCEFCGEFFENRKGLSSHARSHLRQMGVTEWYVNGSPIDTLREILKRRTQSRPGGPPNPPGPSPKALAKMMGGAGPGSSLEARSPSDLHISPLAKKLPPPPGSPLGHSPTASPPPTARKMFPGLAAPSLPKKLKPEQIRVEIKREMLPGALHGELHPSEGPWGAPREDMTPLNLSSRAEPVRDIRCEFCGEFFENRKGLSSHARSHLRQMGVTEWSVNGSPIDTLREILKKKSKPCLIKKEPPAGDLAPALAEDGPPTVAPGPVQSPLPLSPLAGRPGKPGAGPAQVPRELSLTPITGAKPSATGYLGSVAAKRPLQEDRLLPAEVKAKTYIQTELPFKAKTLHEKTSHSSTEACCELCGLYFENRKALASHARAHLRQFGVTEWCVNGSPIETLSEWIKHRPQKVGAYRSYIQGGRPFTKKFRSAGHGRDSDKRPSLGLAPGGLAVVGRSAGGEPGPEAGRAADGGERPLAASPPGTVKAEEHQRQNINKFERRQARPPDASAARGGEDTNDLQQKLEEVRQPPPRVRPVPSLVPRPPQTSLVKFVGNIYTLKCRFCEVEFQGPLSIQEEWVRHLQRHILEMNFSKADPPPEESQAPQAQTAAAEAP

Assays:
Test in all cases: proximity labelling
Flag-BirA*HP1-β (human) = Flag-BirA*HP1-β (human) (UniProt P83916)
Flag-BirA*HP1-γ (human) = Flag-BirA*HP1-γ (human) (UniProt Q13185)
Flag-BirA*HP1-α (human) = Flag-BirA*HP1-α (human) (UniProt P45973)

Substance | binding (Flag-BirA*HP1-β (human)) | binding (Flag-BirA*HP1-γ (human)) | binding (Flag-BirA*HP1-α (human))
EHMT1 (from UniProt Q9H9B1 1-1298) | binds | binds | 
H2AFY (from UniProt O75367 1-369) | binds | binds | 
WIZ (from UniProt O95785 1-1651) | binds | binds | binds
